# PubChem BioAssay AID180 (DTP/NCI, 2004)
# The list is a part of this screen's results and no random one: it gathers tests that were run many times, whatever their T/C, doses with no T/C, and many T/C values between a quarter and a half above the control. Further doses and runs are listed elsewhere. T/C gives the treated animals as a percentage of the vehicle group. Schedule codes are those of the source, read here as Q, the interval in days (D) or hours (H), X, the number of doses. Some T/C values are followed by the survivors on the day toxicity was checked, most often the fifth; where none is given, no animal had died by that day. Some doses have a count of surviving animals in place of a T/C: the source files T/C as zero there, which appears to mark a toxic dose or a test without result, not a measured value. Survivors were counted at the toxicity check, usually on the fifth day, unless a day is given; later deaths do not show. Some doses were run more than once; their values stand side by side, smallest first.
# System: BDF1 mice, Adenocarcinoma 755 s.c., tumor weight T/C
# Test: NCI In Vivo Anticancer Drug Screen. Data for tumor model Adenocarcinoma 755 (subcutaneous) in B6D2F1 (BDF1) mice
# Conditions: T/C endpoint: mean tumor weight, higher T/C = larger tumour; for T/C: evaluated on day 12
# How it was run: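 Tumor-bearing mice receive test compound while controls get vehicle alone. Antitumor effect is scored from survival or tumor dimensions as a T/C quotient.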
# [1] = dose: 62.0 mg/kg/injection, schedule: Q01DX011 (ip), vehicle: methylcellulose (MC)
# [2] = dose: 75.0 mg/kg/injection, schedule: Q01DX011 (ip), vehicle: carboxymethylcellulose (CMC)
# [3] = dose: 300.0 mg/kg/injection, schedule: Q01DX011 (ip), vehicle: carboxymethylcellulose (CMC)
# [4] = dose: 200.0 mg/kg/injection, schedule: Q01DX011 (ip), vehicle: carboxymethylcellulose (CMC)
# [5] = dose: 600.0 mg/kg/injection, schedule: Q01DX011 (ip), vehicle: carboxymethylcellulose (CMC)
# [6] = dose: 250.0 mg/kg/injection, schedule: Q01DX011 (ip), vehicle: methylcellulose (MC)
# [7] = dose: 50.0 mg/kg/injection, schedule: Q01DX011 (ip), vehicle: carboxymethylcellulose (CMC)
# [8] = dose: 125.0 mg/kg/injection, schedule: Q01DX011 (ip), vehicle: methylcellulose (MC)
# [9] = dose: 31.0 mg/kg/injection, schedule: Q01DX011 (ip), vehicle: methylcellulose (MC)
smiles,measurement,setting,value
CCCCCCCCCCCCCCCCCCNC,T/C,"dose: 7.0 mg/kg/injection, schedule: Q01DX011 (ip), vehicle: carboxymethylcellulose (CMC)",125 % of control [9 of 10 alive]
same,survivor count,"dose: 28.0 mg/kg/injection, schedule: Q01DX011 (ip), vehicle: carboxymethylcellulose (CMC)",6 of 10
same,survivor count,"dose: 56.0 mg/kg/injection, schedule: Q01DX011 (ip), vehicle: carboxymethylcellulose (CMC)",5 of 10
C[C@]12CCC(=O)C=C1CC[C@@H]1[C@@H]2[C@@H](O)C[C@@]2(C)[C@H]1CC[C@]2(O)C(=O)COC(=O)CCC(=O)O,survivor count,"dose: 700.0 mg/kg/injection, schedule: Q01DX011 (sc), vehicle: steroid suspending solution",6 of 10
Cc1cc(Nc2cccc(Cl)c2)nc(N)n1,survivor count,[1],2 of 10
COC(=O)C1C(O)CCC2CN3CCc4c([nH]c5ccccc45)C3CC21 (stereo unspecified),T/C,[2],137 % of control
same,survivor count,[3],0 of 10
O=S(=O)(F)c1nc(Cl)c2[nH]cnc2n1,T/C,"dose: 12.5 mg/kg/injection, schedule: Q01DX011 (ip), vehicle: methylcellulose (MC)",125 % of control [8 of 10 alive]
CCOc1nc(N)nc2n[nH]nc12,survivor count,"dose: 175.0 mg/kg/injection, schedule: Q01DX011 (ip), vehicle: carboxymethylcellulose (CMC)",3 of 10
same,survivor count,[4],1 of 10
CN(C)[C@@H]1C(=O)C(C(=O)NCc2nc3[nH]cnc(=S)c3[nH]2)=C(O)[C@@]2(O)C(=O)C3=C(O)c4c(O)cccc4[C@@](C)(O)[C@H]3C[C@@H]12,survivor count,"dose: 448.0 mg/kg/injection, schedule: Q01DX011 (ip), vehicle: carboxymethylcellulose (CMC)",0 of 10
Brc1ncnc2nc[nH]c12,survivor count,[3],6 of 10
same,survivor count,[5],0 of 10
CCCCn1cnc2c(SCc3ccncc3)nc(N)nc21,survivor count,[6],2 of 10
N#CCCn1cnc2c(=S)nc[nH]c21,survivor count,"dose: 28.0 mg/kg/injection, schedule: Q01DX011 (ip), vehicle: other",2 of 10
same,survivor count,"dose: 56.0 mg/kg/injection, schedule: Q01DX011 (ip), vehicle: other",0 of 10
same,survivor count,"dose: 112.0 mg/kg/injection, schedule: Q01DX011 (ip), vehicle: other",0 of 10
Cn1cnc(=S)c2[nH]cnc21,survivor count,[5],6 of 10
C/C(=N\NC(=O)c1ccncc1)c1cccc(Br)c1,T/C,"dose: 1.8 mg/kg/injection, schedule: Q01DX011 (ip), vehicle: carboxymethylcellulose (CMC)",133 % of control [9 of 10 alive]
same,survivor count,"dose: 7.5 mg/kg/injection, schedule: Q01DX011 (ip), vehicle: carboxymethylcellulose (CMC)",6 of 10
same,survivor count,"dose: 120.0 mg/kg/injection, schedule: Q01DX011 (ip), vehicle: methylcellulose (MC)",1 of 10
COc1cc(C(=O)[O][Hg][CH2]C2COC([CH2][Hg][O]C(=O)c3cc(OC)c(OC)c(OC)c3)CO2)cc(OC)c1OC (stereo unspecified),survivor count,[7],3 of 10
same,survivor count,"dose: 100.0 mg/kg/injection, schedule: Q01DX011 (ip), vehicle: carboxymethylcellulose (CMC)",0 of 10
same,survivor count,[4],0 of 10
O=C=NC(c1ccccc1)(c1ccccc1)c1ccccc1,survivor count,"dose: 224.0 mg/kg/injection, schedule: Q01DX011 (ip), vehicle: carboxymethylcellulose (CMC)",2 of 10
O=NN1CCN(N=O)CC1,T/C,"dose: 23.5 mg/kg/injection, schedule: Q01DX011 (ip), vehicle: carboxymethylcellulose (CMC)",141 % of control
same,survivor count,"dose: 47.0 mg/kg/injection, schedule: Q01DX011 (ip), vehicle: carboxymethylcellulose (CMC)",1 of 10 and 4 of 10
same,survivor count,"dose: 49.7 mg/kg/injection, schedule: Q01DX011 (ip), vehicle: carboxymethylcellulose (CMC)",3 of 10
same,survivor count,"dose: 58.9 mg/kg/injection, schedule: Q01DX011 (ip), vehicle: carboxymethylcellulose (CMC)",5 of 10
C[C@]12CCC(=O)C=C1CC[C@@H]1[C@@H]2[C@@H](O)C[C@@]2(C)[C@H]1CC[C@]2(O)C(=O)COC(=O)COCC(=O)O,survivor count,"dose: 400.0 mg/kg/injection, schedule: Q01DX011 (ip), vehicle: steroid suspending solution",6 of 12
[N-]=[N+]=C1N=CN=C1c1ncn[nH]1,survivor count,[7],6 of 10
same,survivor count,[2],0 of 10
O=c1[nH]cc(F)c(=O)[nH]1,T/C,"dose: 3.87 mg/kg/injection, schedule: Q01DX011 (ip), vehicle: carboxymethylcellulose (CMC)",127 % of control
same,survivor count,"dose: 31.0 mg/kg/injection, schedule: Q01DX011 (ip), vehicle: carboxymethylcellulose (CMC)",3 of 10
same,survivor count,"dose: 33.1 mg/kg/injection, schedule: Q01DX011 (ip), vehicle: carboxymethylcellulose (CMC)",5 of 10
c1ccc(N2N=C3N(c4ccccc4)C2N3c2ccccc2)cc1,survivor count,"dose: 30.0 mg/kg/injection, schedule: Q01DX011 (ip), vehicle: other",4 of 10
Cn1c(=O)c2c(ncn2CCCO)n(C)c1=O,T/C,"dose: 25.0 mg/kg/injection, schedule: Q01DX011 (ip), vehicle: carboxymethylcellulose (CMC)",125 % of control [9 of 10 alive]
Cn1c(=O)c2c(nc(N(CCO)CCO)n2C)n(C)c1=O,T/C,"dose: 240.0 mg/kg/injection, schedule: Q01DX011 (ip), vehicle: saline",129 % of control
same,survivor count,"dose: 960.0 mg/kg/injection, schedule: Q01DX011 (ip), vehicle: saline",0 of 10
CN(CCO)/N=N/c1nc[nH]c1C(N)=O,survivor count,"dose: 375.0 mg/kg/injection, schedule: Q01DX011 (ip), vehicle: carboxymethylcellulose (CMC)",5 of 10
CC(=O)OCC(=O)[C@@]1(O)CC[C@H]2[C@@H]3CCC4=CC(=O)C=C[C@]4(C)[C@H]3C(=O)C[C@@]21C,survivor count,"dose: 115.0 mg/kg/injection, schedule: Q01DX011 (sc), vehicle: steroid suspending solution",1 of 10
same,survivor count,"dose: 120.0 mg/kg/injection, schedule: Q01DX011 (sc), vehicle: steroid suspending solution",6 of 10
same,survivor count,"dose: 230.0 mg/kg/injection, schedule: Q01DX011 (sc), vehicle: steroid suspending solution",1 of 12 and 2 of 10
CSc1ncc(C)c(Nc2ccc(Br)cc2)n1,T/C,[1],132 % of control [8 of 10 alive]
same,survivor count,[8],5 of 10
same,survivor count,[6],1 of 10
NOCC(=O)O,survivor count,"dose: 18.75 mg/kg/injection, schedule: Q01DX011 (ip), vehicle: water",6 of 12
same,survivor count,"dose: 25.0 mg/kg/injection, schedule: Q01DX011 (ip), vehicle: other",6 of 10
same,survivor count,"dose: 25.0 mg/kg/injection, schedule: Q01DX011 (ip), vehicle: water",3 of 12
same,survivor count,"dose: 37.5 mg/kg/injection, schedule: Q01DX011 (ip), vehicle: other",2 of 10
same,survivor count,"dose: 37.5 mg/kg/injection, schedule: Q01DX011 (ip), vehicle: water",0 of 12
same,survivor count,"dose: 50.0 mg/kg/injection, schedule: Q01DX011 (ip), vehicle: water",2 of 12
CC(Cc1ccccc1)NC(=O)CCl (stereo unspecified),survivor count,"dose: 37.0 mg/kg/injection, schedule: Q01DX011 (ip), vehicle: other",3 of 10
same,survivor count,"dose: 50.0 mg/kg/injection, schedule: Q01DX011 (ip), vehicle: other",2 of 10
same,survivor count,"dose: 112.0 mg/kg/injection, schedule: Q01DX011 (im), vehicle: other",5 of 10
same,survivor count,"dose: 112.0 mg/kg/injection, schedule: Q01DX011 (sc), vehicle: other",3 of 10
Nc1nc(O)c(Br)c(=O)[nH]1,survivor count,[8],2 of 10
CCOC(=O)NP(=O)(N1CC1)N1CC1,survivor count,"dose: 20.0 mg/kg/injection, schedule: Q01DX011 (ip), vehicle: carboxymethylcellulose (CMC)",6 of 10
Nc1nc(=S)cc(Nc2cccc(Cl)c2)[nH]1,survivor count,[9],6 of 10
Cc1cnc(SCc2ccccc2)nc1N(C)C,survivor count,[9],6 of 10
O=C(CCBr)N1CN(C(=O)CCBr)CN(C(=O)CCBr)C1,T/C,"dose: 28.0 mg/kg/injection, schedule: Q01DX011 (ip), vehicle: methylcellulose (MC)",126 % of control
